In PubChem BioAssay AID2551 (National Center for Advancing Translational Sciences (NCATS), 2010):
The campaign covered roughly 310,000 compounds. About 17,000 (5.5%) were called active. Inconclusive results, whose numbers are uncertain, are shown with a selection of clear calls. Calls follow the shape of the dose curve; as a rule, active = well fitted inhibition curve with a large enough effect; inconclusive = small, poorly fitted or top-dose-only effect, or effect the other way; inactive = no such curve, though single readings can be large or run the other way. Where the call is inconclusive, the potency comes from a doubtful curve fit. Where a SMILES comes first, the peptide text is derived from it.

By UniProt entry, the sequences of proteins in these tests, tags left out. Where a name states a change or a piece, a line headed by the entry shows the natural chain unless it says otherwise.
UniProt P51450: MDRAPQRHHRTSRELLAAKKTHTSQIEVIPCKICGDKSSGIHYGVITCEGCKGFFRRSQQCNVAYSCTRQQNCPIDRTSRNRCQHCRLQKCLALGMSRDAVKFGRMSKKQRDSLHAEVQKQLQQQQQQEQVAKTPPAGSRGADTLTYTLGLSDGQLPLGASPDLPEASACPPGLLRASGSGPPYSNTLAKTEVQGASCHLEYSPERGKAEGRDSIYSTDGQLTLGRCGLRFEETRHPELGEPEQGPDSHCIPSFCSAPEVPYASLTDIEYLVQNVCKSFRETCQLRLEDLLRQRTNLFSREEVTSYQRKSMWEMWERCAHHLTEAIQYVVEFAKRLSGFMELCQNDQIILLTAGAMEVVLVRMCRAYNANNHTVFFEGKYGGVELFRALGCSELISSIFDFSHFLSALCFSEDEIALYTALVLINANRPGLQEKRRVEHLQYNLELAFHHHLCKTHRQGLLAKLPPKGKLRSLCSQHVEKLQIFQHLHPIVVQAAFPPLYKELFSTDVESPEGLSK

molecular target: Nuclear receptor ROR-gamma (Mus musculus) (UniProt P51450); assay: qHTS for inhibitors of ROR gamma transcriptional activity; settings: Drosophila S2 Gal4-RORgamma UAS-luciferase reporter, 20 h; series mostly up to 53.6 µM; also: nearly all actives have a fitted effect of over 60% in size
Outline: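 Compounds are pin-transferred onto Drosophila Schneider cells expressing a copper-inducible Gal4–ROR gamma transactivation domain fusion. After 1 hr, copper sulfate is added to 700 uM final; luciferase is read 20 hr later.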
Potency is read from the fitted curve at half-maximal effect.

| Compound | Potency |
| --- | --- |
| CCNC(=S)Nc1ccc(Cc2nc3ccccc3[nH]2)cc1 | inactive |
| O=C(O)c1ccc(COc2ccc3c(c2)CCC3)cc1 | inconclusive: 11.2 µM [inhibitor, partial curve] |
| CC1CN(C(=S)NC(=O)c2ccc(Cl)cc2)CC(C)O1 (configuration not stated) | active: 1.58 µM |
| COc1cccc(NC(=O)CCC(=O)N2CC(C)Oc3ccc(C)cc32)c1 (configuration not stated) | inactive |
| O=c1c2ccccc2ncn1Cc1cccc2ccccc12 | inactive |
| Cc1cnc(NCCc2ccccc2)s1 | inconclusive: 14.1 µM [inhibitor, single point] |
| Cc1onc(-c2ccccc2)c1C(=O)NC(=S)NNC(=O)c1ccncc1 | inconclusive: 3.55 µM [inhibitor, single point] |
| NC(=O)c1c(NC(=O)CSc2nnc(Cc3ccccc3)n2Cc2ccco2)sc2c1CCC2 | inactive |
| O=S(=O)(NCCSc1nc2ccccc2o1)c1ccccc1 | inconclusive: 11.2 µM [activator, partial curve] |
| O=C(COc1ccccc1F)N/N=C1\CCCc2ccccc21 | active: 3.98 µM |
| O=c1c(O)c(-c2ccccc2)oc2cccc(O)c12 | active: 3.98 µM |
| O=C(N/N=C/c1ccncc1)c1sc2ccccc2c1Cl | inconclusive: 20 µM [inhibitor, single point] |
| N=c1c2c(-c3ccccc3)c(-c3ccccc3)n(Cc3ccco3)c2ncn1Cc1ccco1 | inconclusive: 12.6 µM [inhibitor, single point] |
| C/C(CC(=O)Nc1ccc(Cl)c(C(F)(F)F)c1)=N\NC(=O)c1ccccc1O | inconclusive: 20 µM [inhibitor, single point] |
| O=C(c1ccco1)N1CCN(CCCCOc2cccc3ccccc23)CC1 | inconclusive: 20 µM [activator, partial curve] |
| Cc1nn(-c2ccccc2)c(N2CCCC2)c1/C=N/NC(=S)Nc1ccccc1F | active: 0.355 µM |
| O=C(/C=C/c1ccc(N2CCOCC2)cc1)c1ccccc1 | inconclusive: 35.5 µM [inhibitor, single point] |
| CC(=O)Nc1ccc(N2Cc3ccccc3C2)cc1 | inconclusive: 25.1 µM [activator, single point] |
| O=C(Nc1cccs1)Nc1ccccc1Cl | inactive |
| Cc1cnc(NC(=O)c2ccncc2)s1 | inconclusive: 17.8 µM [inhibitor, single point] |
| CCSc1nnc(NC(=O)C2CCN(S(=O)(=O)c3ccccc3C(F)(F)F)CC2)s1 | inconclusive: 39.8 µM [activator, partial curve, poor fit] |
| CC(C)Cc1cc(C(=O)Nc2cc(Br)ccc2O)no1 | inconclusive: 25.1 µM [activator, single point] |
| CN(C)CCn1c(=N)n(CC(O)c2ccc(Cl)c(Cl)c2)c2ccccc21 (configuration not stated) | inactive |
| COc1cc(/C=N/NC(=O)c2ccccc2O)ccc1OCC(=O)Nc1ccccc1 | inconclusive: 31.6 µM [inhibitor, single point] |
| O=C(CCn1nnc2ccccc2c1=O)NCC1CCC(C(=O)O)CC1 (configuration not stated) | inconclusive: 0.0794 µM [inhibitor, single point] |
| Cc1ccc(S(=O)(=O)N(C)C)cc1NC(=S)Nc1ccc2[nH]c(=O)[nH]c2c1 | inactive |

Part of the list above, set out differently:
Compound,Potency
O=C(O)c1ccc(COc2ccc3c(c2)CCC3)cc1,"inconclusive: 11.2 µM [inhibitor, partial curve]"
CC1CN(C(=S)NC(=O)c2ccc(Cl)cc2)CC(C)O1 (configuration not stated),active: 1.58 µM
COc1cccc(NC(=O)CCC(=O)N2CC(C)Oc3ccc(C)cc32)c1 (configuration not stated),inactive
O=c1c2ccccc2ncn1Cc1cccc2ccccc12,inactive
Cc1cnc(NCCc2ccccc2)s1,"inconclusive: 14.1 µM [inhibitor, single point]"
Cc1onc(-c2ccccc2)c1C(=O)NC(=S)NNC(=O)c1ccncc1,"inconclusive: 3.55 µM [inhibitor, single point]"
O=C(COc1ccccc1F)N/N=C1\CCCc2ccccc21,active: 3.98 µM
N=c1c2c(-c3ccccc3)c(-c3ccccc3)n(Cc3ccco3)c2ncn1Cc1ccco1,"inconclusive: 12.6 µM [inhibitor, single point]"
C/C(CC(=O)Nc1ccc(Cl)c(C(F)(F)F)c1)=N\NC(=O)c1ccccc1O,"inconclusive: 20 µM [inhibitor, single point]"
Cc1nn(-c2ccccc2)c(N2CCCC2)c1/C=N/NC(=S)Nc1ccccc1F,active: 0.355 µM
CCSc1nnc(NC(=O)C2CCN(S(=O)(=O)c3ccccc3C(F)(F)F)CC2)s1,"inconclusive: 39.8 µM [activator, partial curve, poor fit]"
CN(C)CCn1c(=N)n(CC(O)c2ccc(Cl)c(Cl)c2)c2ccccc21 (configuration not stated),inactive
COc1cc(/C=N/NC(=O)c2ccccc2O)ccc1OCC(=O)Nc1ccccc1,"inconclusive: 31.6 µM [inhibitor, single point]"
O=C(CCn1nnc2ccccc2c1=O)NCC1CCC(C(=O)O)CC1 (configuration not stated),"inconclusive: 0.0794 µM [inhibitor, single point]"

(cont.)

| Compound | Potency |
| --- | --- |
| CCOc1ccc2c(c1)sc(N)[n+]2Cc1cc(C)cc2cccnc12 | inconclusive: 5.62 µM [activator, partial curve] |
| CC(=O)NC(CC(C)C)C(=O)NC(Cc1ccccc1)C(N)=O (stereo not drawn) (Ac-Leu-Phe-NH2; configuration not given here) | inconclusive: 7.94 µM [activator, partial curve] |
| O=C(NCc1nc(-c2ccc(C(F)(F)F)cc2)no1)Nc1cc(Cl)cc(Cl)c1 | inactive |
| O=C(Nc1cccc(N=Cc2cc(Br)cc(Br)c2O)c1)c1ccco1 | inconclusive: 35.5 µM [inhibitor, single point] |
| COc1cc2[nH]c(=S)n(C3CC3)c(=O)c2cc1OC | active: 3.55 µM |
| Cc1cc(C(=O)NNC(=S)NC(=O)/C=C/c2ccccc2Cl)n[nH]1 | inconclusive: 25.1 µM [inhibitor, single point] |
| Cn1c2ccccc2c2cc(/C=N/NC(=O)c3cc(O)ccc3O)ccc21 | inconclusive: 22.4 µM [inhibitor, single point] |
| CCOC(=O)C(C(=O)OCC)N(C#N)c1nc(OC)nc(N(C)C)n1 | inconclusive: 35.5 µM [inhibitor, single point] |
| Cc1ccccc1NC(=O)CN1C(=S)NC(C)(C)CC1C (configuration not stated) | inconclusive: 20 µM [inhibitor, single point] |
| COc1ccc(CNCC(=O)Nc2cc(C)nn2-c2nc(C)cc(C)n2)cc1OC | inactive |
| O=C(Nc1nc2ccccc2[nH]1)c1cc2ccccc2o1 | active: 2.51 µM |
| O=C(C[n+]1ccccc1)Nc1ccccc1C(=O)O | inactive |
| CCN(CC)C(=O)c1cc2c(=O)oc3ccccc3c2s1 | inconclusive: 10 µM [activator, partial curve, poor fit] |
| CC(C)n1c(=S)[nH]c2ccccc21 | inconclusive: 11.2 µM [activator, partial curve, poor fit] |
| CCOc1ccc(CNC(=O)C2CCN(c3nnc(C)c4c(C)n(-c5ccc(C)cc5)nc34)CC2)cc1 | inconclusive: 35.5 µM [inhibitor, single point] |
| Cc1cc2ccccc2c(=O)n1CC(=O)NCC(=O)N(C)C1CCCCC1 | inactive |
| O=C1CSC(=S)N1/N=C/c1ccc(Cl)c([N+](=O)[O-])c1 | inactive |
| Cc1ccc(NC2OC(C(O)CO)C(O)C2O)cc1[N+](=O)[O-] (configuration not stated) | inconclusive: 1.12 µM [activator, full curve, poor fit] |
| O=C(Nc1ccc(Br)cc1F)c1ccc2nsnc2c1 | inactive |
| O=C(NNC(=O)c1ccc(SCC2CCCO2)c([N+](=O)[O-])c1)c1ccc(Cl)c([N+](=O)[O-])c1 (configuration not stated) | inconclusive: 35.5 µM [inhibitor, single point] |
| CCC(c1nnnn1Cc1ccco1)N(CCc1ccccc1)Cc1cc2ccc(OC)cc2[nH]c1=O (configuration not stated) | inconclusive: 11.2 µM [activator, single point] |
| COc1ccc(C(=O)CCN2CCc3cc(OC)c(OC)cc3C2)cc1 | inconclusive: 17.8 µM [inhibitor, single point] |
| CSc1cccc(NC(=O)C2CCN(S(=O)(=O)c3ccc4c(c3)NC(=O)CO4)CC2)c1 | inactive |
| COc1ccc(C2Nc3ccccc3C(=O)N2C2CCCCC2)cc1 (configuration not stated) | inconclusive: 22.4 µM [activator, single point] |
| CCc1cccc(CC)c1NC(=S)Nc1ccccc1 | active: 12.6 µM |
| Cc1cc(C(=O)Nc2nc3ccc(S(C)(=O)=O)cc3s2)c(C)o1 | active: 1.12 µM |

| Compound | Potency |
| --- | --- |
| O=C(O)C1C2CCC(C2)C1C(=O)NCc1ccccn1 (configuration not stated) | inconclusive: 14.1 µM [inhibitor, single point] |
| COCC(=O)N1CCC2(CCCN(c3ccccn3)C2)CC1 | inactive |
| CCn1cc(C2=NOC(C(=O)Nc3ccc4c(c3)OCO4)C2)c(C)n1 (configuration not stated) | inconclusive: 31.6 µM [activator, single point] |
| COc1cccc(/C=N/NC(=O)CSCC(=O)Nc2ccccc2)c1O | active: 0.501 µM |
| Cc1ccc(-n2c(C)cc(/C=N/NC(=O)c3ccncc3)c2C)cc1C | active: 3.98 µM |
| C=CCN=C1S/C(=C\c2ccc(N(C)C)cc2)C(=O)N1CC=C | inactive |
| Cc1cccc(NC(=S)NCCc2ccccn2)c1 | inconclusive: 3.98 µM [inhibitor, partial curve] |
| CC(C)CC(=O)NC(=S)Nc1cccc2nsnc12 | active: 7.94 µM |
| NC(=O)CC(NC(=O)c1ccccc1)c1ccc(NCCc2ccc(F)cc2)c([N+](=O)[O-])c1 (configuration not stated) | inconclusive: 12.6 µM [activator, single point] |
| Cc1cc(C)n(-c2nc(NCCC(C)C)c3c4c(sc3n2)COC(C)(C)C4)n1 | active: 0.631 µM |
| Cc1ccccc1Cn1cnc2c(cnn2C(C)(C)C)c1=O | inconclusive: 11.2 µM [activator, partial curve] |
| COc1ccc(C(O)C(CN2CCOCC2)c2ccccc2)cc1 (configuration not stated) | inactive |
| C=CCN(CC=C)C(=S)NC(=O)c1ccc(OC)cc1 | active: 0.891 µM |
| O=S(=O)(NC1CCCC1)c1cc(F)ccc1F | inactive |
| C=C1SC(=Nc2ccccc2Cl)N(C(=O)c2sc3ccccc3c2Cl)C1(C)C | inconclusive: 35.5 µM [inhibitor, single point] |
| CCCC[C@@H](CN[C@H](C)CNC)NCC1CCC(C(C)(C)C)CC1 (some centres not stated) | active: 11.2 µM |
| CCCCSC1(SCCCC)N=C(N)C2(C#N)C(c3ccccc3)NC(C)=CC12C#N (configuration not stated) | inconclusive: 11.2 µM [inhibitor, partial curve, poor fit] |
| Cc1ccc(/C=C2/CNC/C(=C\c3ccc(C)cc3)C2=O)cc1 | active: 3.55 µM |
| O=C(COc1ccc(-c2ccccc2)cc1)N1CCN(S(=O)(=O)Cc2ccccc2)CC1 | inactive |
| Cc1c(C(=O)NCc2cccnc2)oc2ccc(S(=O)(=O)N3CC(C)CC(C)C3)cc12 (configuration not stated) | inactive |
| S=c1[nH]nc(C2CCCCC2)n1/N=C/c1ccccc1 | active: 8.91 µM |
| COC(=O)/C(=C1/Oc2cc(C)oc(=O)c2S1)C(F)(F)F | active: 0.708 µM |
| CCOC(=O)C1=C(C)NC(=O)NC1c1ccc(OC)c(Cl)c1 (configuration not stated) | inactive |
| Fc1ccccc1CSc1nnc(-c2cnccn2)n1Cc1ccco1 | inconclusive: 2.82 µM [activator, full curve] |
| COc1ccc(-c2nc(NC(=O)CCNC(=O)c3ccco3)sc2C)cc1 | inconclusive: 14.1 µM [activator, single point] |
